Laboratory results: the supplement of paper PMC8728848
The list shows a part of the results.

What was measured:
Test in all cases: glycan array binding signal (z-score within array); higher = stronger binding
Settings in all cases: glycan notation: IUPAC condensed, linker removed
[1] = molecular target: Gal(b1-3)GlcNAc(b1-3)Gal(b1-4)GlcNAc(b1-2)[Gal(b1-3)GlcNAc(b1-3)Gal(b1-4)GlcNAc(b1-6)]Man(a1-6)[Gal(b1-3)GlcNAc(b1-3)Gal(b1-4)GlcNAc(b1-2)Man(a1-3)]Man(b1-4)GlcNAc(b1-4)[Fuc(a1-6)]GlcNAc
Method in brief: (§1)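 Negative Z-scores can be read as non-binding. The Z-score is calculated within each array and then averaged across arrays of one protein sequence at different concentrations or buffers and across linkers. Arrays, 3228 in all, were curated from the Consortium for Functional Glycomics database and kept only where the protein sequence was available.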

[2] = molecular target: Gal(b1-3)GlcNAc(b1-3)Gal(b1-4)GlcNAc(b1-3)Gal(b1-4)GlcNAc(b1-2)[Gal(b1-3)GlcNAc(b1-3)Gal(b1-4)GlcNAc(b1-3)Gal(b1-4)GlcNAc(b1-6)]Man(a1-6)[Gal(b1-3)GlcNAc(b1-3)Gal(b1-4)GlcNAc(b1-3)Gal(b1-4)GlcNAc(b1-2)Man(a1-3)]Man(b1-4)GlcNAc(b1-4)[Fuc(a1-6)]GlcNAc
Method in brief: as §1

[3] = molecular target: Gal(b1-3)GlcNAc(b1-3)Gal(b1-4)GlcNAc(b1-6)[Gal(b1-3)GlcNAc(b1-3)]Gal(b1-4)Glc
Method in brief: as §1

[4] = molecular target: Gal(b1-3)GlcNAc(b1-3)Gal(b1-4)[Fuc(a1-3)]GlcNAc
Method in brief: as §1

[5] = molecular target: Gal(b1-3)GlcNAc(b1-3)Gal(b1-4)[Fuc(a1-3)]GlcNAc(b1-6)[Gal(b1-3)GlcNAc(b1-3)]Gal(b1-4)Glc
Method in brief: as §1

[6] = molecular target: Gal(b1-3)GlcNAc(b1-3)GalNAc
Method in brief: as §1

[7] = molecular target: Gal(b1-3)GlcNAc(b1-6)Gal(b1-4)GlcNAc
Method in brief: as §1

[8] = molecular target: Gal(b1-3)GlcNAc(b1-6)GalNAc
Method in brief: as §1

[9] = molecular target: Gal(b1-3)GlcNAc(b1-6)[Gal(b1-3)]GalNAc
Method in brief: as §1

[10] = molecular target: Gal(b1-3)GlcNAc6S
Method in brief: as §1

[11] = molecular target: Gal(b1-3)[Fuc(a1-4)]GlcNAc
Method in brief: as §1

[12] = molecular target: Gal(b1-3)[Fuc(a1-4)]GlcNAc(b1-2)Man
Method in brief: as §1

[13] = molecular target: Gal(b1-3)[Fuc(a1-4)]GlcNAc(b1-2)Man(a1-3)[Gal(b1-3)[Fuc(a1-4)]GlcNAc(b1-2)Man(a1-6)]Man(b1-4)GlcNAc(b1-4)[Fuc(a1-6)]GlcNAc
Method in brief: as §1

[14] = molecular target: Gal(b1-3)[Fuc(a1-4)]GlcNAc(b1-3)Gal(b1-3)[Fuc(a1-4)]GlcNAc
Method in brief: as §1

[15] = molecular target: Gal(b1-3)[Fuc(a1-4)]GlcNAc(b1-3)Gal(b1-4)[Fuc(a1-3)]GlcNAc
Method in brief: as §1

[16] = molecular target: Gal(b1-3)[Fuc(a1-4)]GlcNAc(b1-6)GalNAc
Method in brief: as §1

[17] = molecular target: Gal(b1-3)[GlcNAc(b1-6)]GalNAc
Method in brief: as §1

[18] = molecular target: Gal(b1-3)[Neu5Ac(a2-6)]GalNAc
Method in brief: as §1

[19] = molecular target: Gal(b1-3)[Neu5Ac(a2-6)]GlcNAc(b1-4)Gal(b1-4)Glc
Method in brief: as §1

[20] = molecular target: Gal(b1-3)[Neu5Ac(b2-6)]GalNAc
Method in brief: as §1

[21] = molecular target: Gal(b1-4)Gal
Method in brief: as §1

[22] = molecular target: Gal(b1-4)GalNAc(a1-3)[Fuc(a1-2)]Gal(b1-4)GlcNAc
Method in brief: as §1

[23] = molecular target: Gal(b1-4)GalNAc(b1-3)[Fuc(a1-2)]Gal(b1-4)GlcNAc
Method in brief: as §1

[24] = molecular target: Gal(b1-4)Glc
Method in brief: as §1

[25] = molecular target: Gal(b1-4)Glc6S
Method in brief: as §1

[26] = molecular target: Gal(b1-4)GlcNAc
Method in brief: as §1

[27] = molecular target: Gal(b1-4)GlcNAc(a1-6)Gal(b1-4)GlcNAc
Method in brief: as §1

[28] = molecular target: Gal(b1-4)GlcNAc(b1-2)Man
Method in brief: as §1

[29] = molecular target: Gal(b1-4)GlcNAc(b1-2)Man(a1-3)Man(b1-4)GlcNAc(b1-4)GlcNAc
Method in brief: as §1

[30] = molecular target: Gal(b1-4)GlcNAc(b1-2)Man(a1-3)[Gal(b1-4)GlcNAc(b1-2)Man(a1-6)]Man(b1-4)GlcNAc(b1-4)GlcNAc
Method in brief: as §1

[31] = molecular target: Gal(b1-4)GlcNAc(b1-2)Man(a1-3)[Gal(b1-4)GlcNAc(b1-2)Man(a1-6)]Man(b1-4)GlcNAc(b1-4)[Fuc(a1-6)]GlcNAc
Method in brief: as §1

[32] = molecular target: Gal(b1-4)GlcNAc(b1-2)Man(a1-3)[Gal(b1-4)GlcNAc(b1-2)Man(a1-6)][Gal(b1-4)GlcNAc(b1-4)]Man(b1-4)GlcNAc(b1-4)[Fuc(a1-6)]GlcNAc
Method in brief: as §1

[33] = molecular target: Gal(b1-4)GlcNAc(b1-2)Man(a1-3)[Gal(b1-4)GlcNAc(b1-2)Man(a1-6)][GlcNAc(b1-4)]Man(b1-4)GlcNAc(b1-4)[Fuc(a1-6)]GlcNAc
Method in brief: as §1

[34] = molecular target: Gal(b1-4)GlcNAc(b1-2)Man(a1-3)[GlcNAc(b1-2)Man(a1-6)]Man(b1-4)GlcNAc(b1-4)GlcNAc
Method in brief: as §1

[35] = molecular target: Gal(b1-4)GlcNAc(b1-2)Man(a1-3)[GlcNAc(b1-4)][Gal(b1-4)GlcNAc(b1-2)Man(a1-6)]Man(b1-4)GlcNAc(b1-4)GlcNAc
Method in brief: as §1

[36] = molecular target: Gal(b1-4)GlcNAc(b1-2)Man(a1-3)[Man(a1-6)]Man(b1-4)GlcNAc(b1-4)GlcNAc
Method in brief: as §1

[37] = molecular target: Gal(b1-4)GlcNAc(b1-2)Man(a1-6)Man(b1-4)GlcNAc(b1-4)GlcNAc
Method in brief: as §1

[38] = molecular target: Gal(b1-4)GlcNAc(b1-2)Man(a1-6)[GlcNAc(b1-2)Man(a1-3)]Man(b1-4)GlcNAc(b1-4)GlcNAc
Method in brief: as §1

B1: FimA (Actinomyces oris) (protein)
chain: MHHHHHHSSGVDLGTENLYFQSNAETPNYGNIKTDATGSLVIHKHLTGGGKDIGTPTGTAQNADDKGPAVEGVVFTAYPITDINLKDPAGWDTISNLSRTGVPDSACANPAAPTLGAHQFGTPKVSPATTKEGLATITEMPVQAYLVCETTTPGDIVQKAKPFVVTIPHPNTAAGADGQWIYDVNVYPKNEAIDVDKTIQAQKLNGYGVGSLIKFPVESTAPTLDAKSFYKYFQLKDTLDERLSEVTATDVSLEGTPLQPTDYKVETKQQTVTVTFTAEGLKKIKAAPGKKVSAVFQGKVTKAGNGAITNRAQVISDTLYAEQPPTPETPPTDPENPPTSDEVISRWGDLSIKKVDTHQQGQTKAGLQGAQFQLYKAKNAYANTCSNEKEGAPIAINGQTTLTTDAQGAIDIKGLFISDSIDGADRDNQVNAMERCYVLVETKAPAGYVLPAGNGAATPVKVKAGEETTDNVTVENTKQSVPGLPLTG
[1]
  glycan array binding signal (z-score): 2.57
[2]
  glycan array binding signal (z-score): 2
[3]
  glycan array binding signal (z-score): -0.645
[4]
  glycan array binding signal (z-score): -0.756
[5]
  glycan array binding signal (z-score): -0.23
[6]
  glycan array binding signal (z-score): 0.226
[7]
  glycan array binding signal (z-score): -0.874
[8]
  glycan array binding signal (z-score): -0.286
[9]
  glycan array binding signal (z-score): -0.07
[10]
  glycan array binding signal (z-score): -0.362
[11]
  glycan array binding signal (z-score): -0.412
[12]
  glycan array binding signal (z-score): 0.024
[13]
  glycan array binding signal (z-score): 0.774
[14]
  glycan array binding signal (z-score): -0.534
[15]
  glycan array binding signal (z-score): 0.459
[16]
  glycan array binding signal (z-score): 0.037
[17]
  glycan array binding signal (z-score): -0.815
[18]
  glycan array binding signal (z-score): -0.221
[19]
  glycan array binding signal (z-score): -0.489
[20]
  glycan array binding signal (z-score): -0.575
[21]
  glycan array binding signal (z-score): 0.292
[22]
  glycan array binding signal (z-score): -0.354
[23]
  glycan array binding signal (z-score): 0.048
[24]
  glycan array binding signal (z-score): -0.183
[25]
  glycan array binding signal (z-score): 0.074
[26]
  glycan array binding signal (z-score): -0.44
[27]
  glycan array binding signal (z-score): -0.746
[28]
  glycan array binding signal (z-score): 0.574
[29]
  glycan array binding signal (z-score): 0.054
[30]
  glycan array binding signal (z-score): -0.3
[31]
  glycan array binding signal (z-score): -0.159
[32]
  glycan array binding signal (z-score): -0.072
[33]
  glycan array binding signal (z-score): -0.885
[34]
  glycan array binding signal (z-score): -0.871
[35]
  glycan array binding signal (z-score): -0.328
[36]
  glycan array binding signal (z-score): -0.761
[37]
  glycan array binding signal (z-score): -0.446
[38]
  glycan array binding signal (z-score): -0.044
